According to PMC11303697:
Results are given in words; binding and its absence hold for the method and conditions named. In cells and extracts the contact can be indirect. Some binding calls cover weakened binding; strength is not graded here. For some assays here: Tags and fused reporters may be left off the sequences shown.

The chains behind the UniProt entries cited, without tags or fusion partners.
UniProt Q04206: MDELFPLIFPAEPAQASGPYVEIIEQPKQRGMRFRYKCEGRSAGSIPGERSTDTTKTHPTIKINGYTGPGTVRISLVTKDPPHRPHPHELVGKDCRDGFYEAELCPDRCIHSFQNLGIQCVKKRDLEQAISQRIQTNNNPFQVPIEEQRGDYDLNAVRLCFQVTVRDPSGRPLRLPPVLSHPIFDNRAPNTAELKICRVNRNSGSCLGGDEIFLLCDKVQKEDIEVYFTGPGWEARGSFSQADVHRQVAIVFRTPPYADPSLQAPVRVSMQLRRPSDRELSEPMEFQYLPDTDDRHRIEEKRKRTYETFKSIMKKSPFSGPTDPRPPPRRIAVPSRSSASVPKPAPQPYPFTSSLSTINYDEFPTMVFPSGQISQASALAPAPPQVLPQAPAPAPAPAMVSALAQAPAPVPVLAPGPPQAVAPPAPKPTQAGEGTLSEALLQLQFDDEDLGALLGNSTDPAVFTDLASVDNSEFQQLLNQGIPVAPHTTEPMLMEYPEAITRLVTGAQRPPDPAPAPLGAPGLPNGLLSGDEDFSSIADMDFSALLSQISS

How the values were obtained:
GST-BTG3 = biological target: T1, GST-BTG3 (UniProt Q14201); assay: pull-down; GST pulldown 'in vitro' with recombinant GST-BTG3 proteins; conditions not given
T1 sequence: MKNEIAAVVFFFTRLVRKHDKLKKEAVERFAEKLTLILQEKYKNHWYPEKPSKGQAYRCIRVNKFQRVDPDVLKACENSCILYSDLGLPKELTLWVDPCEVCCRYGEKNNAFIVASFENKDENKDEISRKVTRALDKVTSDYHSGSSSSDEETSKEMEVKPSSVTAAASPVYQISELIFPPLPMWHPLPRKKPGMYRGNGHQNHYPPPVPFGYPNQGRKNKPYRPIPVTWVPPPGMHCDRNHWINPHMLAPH

BTG3 = biological target: T2, BTG3 (UniProt Q14201); assay: co-IP; p65 and BTG3 overexpressed in 293T cells; lysates in TEGN buffer diluted with TEG buffer; anti-Flag (M2) or anti-HA antibody and protein A resin, 2 h at 4 °C
T2 sequence: T1 sequence

binding (GST-BTG3)	binding (BTG3)	Substance
binds	–	p65 (as used in the GST pulldown) (from UniProt Q04206 1-551)
–	binds	p65 (from UniProt Q04206 1-551)
